This note sets out measurements from the supplement of paper PMC6411743.

By UniProt entry, the sequences of proteins in these tests, tags left out. Where a name states a change or a piece, a line headed by the entry shows the natural chain unless it says otherwise.
UniProt Q7L4I2: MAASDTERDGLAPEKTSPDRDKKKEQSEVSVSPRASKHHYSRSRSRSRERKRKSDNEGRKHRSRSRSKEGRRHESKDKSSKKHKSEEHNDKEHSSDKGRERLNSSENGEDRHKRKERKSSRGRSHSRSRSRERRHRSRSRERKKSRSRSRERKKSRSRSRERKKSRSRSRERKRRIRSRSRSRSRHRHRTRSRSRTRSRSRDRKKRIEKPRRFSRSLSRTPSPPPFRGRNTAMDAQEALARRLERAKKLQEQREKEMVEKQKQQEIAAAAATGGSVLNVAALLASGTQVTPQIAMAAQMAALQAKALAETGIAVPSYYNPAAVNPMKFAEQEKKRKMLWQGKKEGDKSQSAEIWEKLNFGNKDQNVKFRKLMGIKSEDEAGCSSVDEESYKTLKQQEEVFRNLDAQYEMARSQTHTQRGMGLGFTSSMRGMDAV
UniProt Q5VWG9, whole entry: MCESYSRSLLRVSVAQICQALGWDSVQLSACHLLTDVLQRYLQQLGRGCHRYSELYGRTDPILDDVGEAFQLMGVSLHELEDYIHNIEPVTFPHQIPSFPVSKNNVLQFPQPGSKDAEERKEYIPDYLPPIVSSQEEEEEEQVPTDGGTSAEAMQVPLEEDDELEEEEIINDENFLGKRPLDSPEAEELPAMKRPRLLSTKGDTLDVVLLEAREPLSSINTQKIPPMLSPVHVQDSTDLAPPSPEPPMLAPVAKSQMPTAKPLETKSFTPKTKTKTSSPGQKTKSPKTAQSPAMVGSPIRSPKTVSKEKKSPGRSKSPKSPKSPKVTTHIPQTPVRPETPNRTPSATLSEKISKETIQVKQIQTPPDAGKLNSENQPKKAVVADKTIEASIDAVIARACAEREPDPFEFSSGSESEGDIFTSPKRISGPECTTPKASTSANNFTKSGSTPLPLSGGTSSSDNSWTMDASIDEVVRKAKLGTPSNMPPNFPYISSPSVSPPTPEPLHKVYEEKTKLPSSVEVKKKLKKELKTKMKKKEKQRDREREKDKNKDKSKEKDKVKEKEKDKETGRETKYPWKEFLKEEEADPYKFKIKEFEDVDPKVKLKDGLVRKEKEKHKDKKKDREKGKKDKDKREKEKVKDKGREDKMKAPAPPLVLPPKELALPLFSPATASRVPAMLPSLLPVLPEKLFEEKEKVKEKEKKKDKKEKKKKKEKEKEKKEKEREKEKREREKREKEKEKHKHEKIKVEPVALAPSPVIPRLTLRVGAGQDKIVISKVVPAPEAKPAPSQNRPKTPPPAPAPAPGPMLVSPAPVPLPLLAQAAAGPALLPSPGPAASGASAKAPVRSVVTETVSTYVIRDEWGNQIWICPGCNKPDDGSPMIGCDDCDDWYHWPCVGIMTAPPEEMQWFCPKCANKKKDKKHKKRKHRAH
UniProt Q7RTV0, whole entry, looked up: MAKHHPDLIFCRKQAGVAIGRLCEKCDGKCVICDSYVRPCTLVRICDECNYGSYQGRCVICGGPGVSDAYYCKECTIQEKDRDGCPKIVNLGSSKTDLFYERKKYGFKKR
UniProt Q7KYR7: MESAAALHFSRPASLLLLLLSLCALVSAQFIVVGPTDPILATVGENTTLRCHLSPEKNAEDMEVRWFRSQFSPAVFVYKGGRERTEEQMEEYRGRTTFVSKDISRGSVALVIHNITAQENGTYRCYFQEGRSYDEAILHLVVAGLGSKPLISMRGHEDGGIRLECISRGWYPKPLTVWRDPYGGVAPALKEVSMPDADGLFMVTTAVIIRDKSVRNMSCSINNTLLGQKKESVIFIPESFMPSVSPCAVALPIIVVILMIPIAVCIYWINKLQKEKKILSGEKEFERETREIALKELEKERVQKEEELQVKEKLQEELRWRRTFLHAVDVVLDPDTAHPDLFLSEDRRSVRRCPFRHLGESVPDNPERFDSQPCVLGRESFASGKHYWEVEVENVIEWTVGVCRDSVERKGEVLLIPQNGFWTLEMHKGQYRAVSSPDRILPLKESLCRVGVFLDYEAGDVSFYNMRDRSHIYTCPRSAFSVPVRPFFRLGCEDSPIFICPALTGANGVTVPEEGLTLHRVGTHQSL
UniProt Q69YI7: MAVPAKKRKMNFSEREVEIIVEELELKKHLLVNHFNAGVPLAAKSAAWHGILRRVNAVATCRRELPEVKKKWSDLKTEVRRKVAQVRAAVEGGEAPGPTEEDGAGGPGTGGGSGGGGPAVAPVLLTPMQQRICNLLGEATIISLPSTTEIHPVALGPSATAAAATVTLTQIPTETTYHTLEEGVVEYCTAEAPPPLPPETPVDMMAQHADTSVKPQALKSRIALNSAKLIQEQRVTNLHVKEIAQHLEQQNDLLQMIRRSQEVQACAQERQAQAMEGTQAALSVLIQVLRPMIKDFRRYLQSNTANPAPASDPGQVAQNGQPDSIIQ
UniProt Q5VUM1: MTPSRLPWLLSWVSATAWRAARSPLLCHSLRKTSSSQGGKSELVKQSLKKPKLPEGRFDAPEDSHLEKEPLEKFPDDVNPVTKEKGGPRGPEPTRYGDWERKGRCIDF
UniProt O14880: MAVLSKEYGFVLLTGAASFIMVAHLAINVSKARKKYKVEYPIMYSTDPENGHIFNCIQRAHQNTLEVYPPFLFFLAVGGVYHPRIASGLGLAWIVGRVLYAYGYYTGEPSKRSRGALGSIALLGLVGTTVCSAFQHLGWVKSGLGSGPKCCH
UniProt Q6P9B9, whole entry: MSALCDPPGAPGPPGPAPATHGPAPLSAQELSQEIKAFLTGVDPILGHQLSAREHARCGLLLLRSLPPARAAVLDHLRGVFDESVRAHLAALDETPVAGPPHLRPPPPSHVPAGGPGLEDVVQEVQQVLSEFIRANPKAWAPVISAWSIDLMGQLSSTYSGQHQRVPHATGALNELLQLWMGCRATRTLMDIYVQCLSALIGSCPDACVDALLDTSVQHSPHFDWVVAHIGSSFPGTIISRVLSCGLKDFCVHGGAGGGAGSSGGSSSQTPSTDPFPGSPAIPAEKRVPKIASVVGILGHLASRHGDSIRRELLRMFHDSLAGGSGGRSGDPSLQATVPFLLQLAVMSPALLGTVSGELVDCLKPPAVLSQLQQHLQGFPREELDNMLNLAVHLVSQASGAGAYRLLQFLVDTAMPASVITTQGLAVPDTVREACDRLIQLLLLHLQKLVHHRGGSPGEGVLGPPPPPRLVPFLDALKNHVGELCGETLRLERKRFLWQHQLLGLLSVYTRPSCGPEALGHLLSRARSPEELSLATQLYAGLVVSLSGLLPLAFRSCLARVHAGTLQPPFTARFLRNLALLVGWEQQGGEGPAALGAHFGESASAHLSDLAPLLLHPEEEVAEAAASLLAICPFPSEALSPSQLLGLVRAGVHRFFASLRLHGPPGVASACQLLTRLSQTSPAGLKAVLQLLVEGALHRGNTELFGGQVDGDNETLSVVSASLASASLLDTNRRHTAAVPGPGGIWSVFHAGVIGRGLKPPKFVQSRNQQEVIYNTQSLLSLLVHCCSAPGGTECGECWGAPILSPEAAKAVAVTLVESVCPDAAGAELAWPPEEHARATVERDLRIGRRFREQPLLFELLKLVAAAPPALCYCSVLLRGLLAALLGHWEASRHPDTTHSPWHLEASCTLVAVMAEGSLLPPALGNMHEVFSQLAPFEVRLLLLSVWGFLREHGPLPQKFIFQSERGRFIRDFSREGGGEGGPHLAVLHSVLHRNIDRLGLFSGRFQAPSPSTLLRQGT
UniProt Q5XUX1: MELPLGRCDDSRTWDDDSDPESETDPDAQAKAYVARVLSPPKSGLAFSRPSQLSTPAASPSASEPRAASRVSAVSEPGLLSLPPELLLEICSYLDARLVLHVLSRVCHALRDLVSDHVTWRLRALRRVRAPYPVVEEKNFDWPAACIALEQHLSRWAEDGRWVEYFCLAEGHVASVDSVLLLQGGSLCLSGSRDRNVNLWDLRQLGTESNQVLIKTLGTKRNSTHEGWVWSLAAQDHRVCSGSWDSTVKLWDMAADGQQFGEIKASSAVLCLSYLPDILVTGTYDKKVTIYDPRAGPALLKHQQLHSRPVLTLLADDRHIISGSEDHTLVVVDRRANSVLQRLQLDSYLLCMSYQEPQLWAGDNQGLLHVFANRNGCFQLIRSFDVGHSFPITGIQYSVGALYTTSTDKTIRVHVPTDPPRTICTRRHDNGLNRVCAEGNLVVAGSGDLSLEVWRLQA
UniProt Q6FI81: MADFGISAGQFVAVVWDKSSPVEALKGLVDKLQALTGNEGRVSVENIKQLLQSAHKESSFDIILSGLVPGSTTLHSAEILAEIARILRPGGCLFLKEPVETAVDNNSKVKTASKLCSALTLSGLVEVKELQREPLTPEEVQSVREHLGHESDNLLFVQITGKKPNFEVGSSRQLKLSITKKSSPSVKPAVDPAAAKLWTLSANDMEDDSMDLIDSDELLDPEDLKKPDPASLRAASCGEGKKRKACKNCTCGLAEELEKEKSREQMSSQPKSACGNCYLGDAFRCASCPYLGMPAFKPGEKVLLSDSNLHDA
UniProt Q6NZY4: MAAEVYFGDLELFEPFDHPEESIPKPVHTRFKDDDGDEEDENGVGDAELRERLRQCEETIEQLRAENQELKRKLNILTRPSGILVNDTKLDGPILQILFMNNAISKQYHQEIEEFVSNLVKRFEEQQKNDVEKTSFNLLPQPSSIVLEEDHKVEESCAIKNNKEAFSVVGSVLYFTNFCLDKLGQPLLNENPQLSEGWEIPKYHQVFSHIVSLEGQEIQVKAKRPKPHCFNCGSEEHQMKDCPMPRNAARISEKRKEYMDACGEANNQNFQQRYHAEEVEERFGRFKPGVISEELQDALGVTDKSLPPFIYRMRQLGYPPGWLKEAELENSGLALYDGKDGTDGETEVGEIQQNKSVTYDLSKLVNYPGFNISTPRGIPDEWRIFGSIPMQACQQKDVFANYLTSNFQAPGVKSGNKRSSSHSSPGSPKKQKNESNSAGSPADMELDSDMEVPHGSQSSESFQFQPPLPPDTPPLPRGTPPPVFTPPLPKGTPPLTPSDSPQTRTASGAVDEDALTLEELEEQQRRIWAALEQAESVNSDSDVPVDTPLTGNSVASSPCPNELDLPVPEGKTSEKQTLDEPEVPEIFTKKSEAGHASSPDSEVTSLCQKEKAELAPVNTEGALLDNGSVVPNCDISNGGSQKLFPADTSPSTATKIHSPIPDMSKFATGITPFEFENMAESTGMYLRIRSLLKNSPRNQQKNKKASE
UniProt Q5VT52: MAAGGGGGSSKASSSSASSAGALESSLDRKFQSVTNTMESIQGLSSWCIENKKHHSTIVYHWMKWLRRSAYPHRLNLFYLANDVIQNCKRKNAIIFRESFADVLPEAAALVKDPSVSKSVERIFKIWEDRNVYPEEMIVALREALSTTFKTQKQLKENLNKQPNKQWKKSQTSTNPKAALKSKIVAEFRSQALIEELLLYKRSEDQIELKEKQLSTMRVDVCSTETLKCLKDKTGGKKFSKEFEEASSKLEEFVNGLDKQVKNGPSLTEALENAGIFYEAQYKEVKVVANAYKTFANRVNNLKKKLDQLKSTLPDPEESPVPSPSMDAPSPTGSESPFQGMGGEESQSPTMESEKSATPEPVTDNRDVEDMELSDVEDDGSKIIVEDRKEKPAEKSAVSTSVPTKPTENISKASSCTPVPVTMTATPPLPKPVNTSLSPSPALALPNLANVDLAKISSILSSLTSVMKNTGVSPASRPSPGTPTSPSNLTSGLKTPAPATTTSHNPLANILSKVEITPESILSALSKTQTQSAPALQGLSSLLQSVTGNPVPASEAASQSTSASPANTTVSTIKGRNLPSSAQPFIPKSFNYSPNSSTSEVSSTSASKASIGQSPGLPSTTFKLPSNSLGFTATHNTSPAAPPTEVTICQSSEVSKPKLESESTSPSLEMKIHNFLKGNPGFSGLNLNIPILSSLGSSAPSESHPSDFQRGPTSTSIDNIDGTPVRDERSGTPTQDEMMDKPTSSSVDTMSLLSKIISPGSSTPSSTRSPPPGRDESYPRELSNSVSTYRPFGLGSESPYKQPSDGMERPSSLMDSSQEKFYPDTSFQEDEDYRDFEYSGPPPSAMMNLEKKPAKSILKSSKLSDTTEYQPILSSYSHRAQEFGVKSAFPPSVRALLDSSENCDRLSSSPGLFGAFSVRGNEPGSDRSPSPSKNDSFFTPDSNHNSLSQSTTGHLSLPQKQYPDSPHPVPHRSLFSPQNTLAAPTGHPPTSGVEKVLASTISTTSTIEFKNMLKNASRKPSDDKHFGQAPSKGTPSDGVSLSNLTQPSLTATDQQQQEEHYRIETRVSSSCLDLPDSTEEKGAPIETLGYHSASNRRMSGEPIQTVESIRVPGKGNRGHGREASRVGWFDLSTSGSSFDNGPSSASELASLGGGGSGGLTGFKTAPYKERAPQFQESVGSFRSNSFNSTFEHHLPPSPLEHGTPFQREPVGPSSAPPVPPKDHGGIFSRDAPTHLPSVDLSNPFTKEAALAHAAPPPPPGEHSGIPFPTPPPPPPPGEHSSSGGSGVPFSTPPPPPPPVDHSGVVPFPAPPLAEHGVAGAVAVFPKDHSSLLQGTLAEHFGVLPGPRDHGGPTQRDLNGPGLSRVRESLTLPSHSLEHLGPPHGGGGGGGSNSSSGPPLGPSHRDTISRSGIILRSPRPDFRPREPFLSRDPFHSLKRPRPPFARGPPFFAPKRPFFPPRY

± gives the standard deviation of the averaged measurements. Only a part is listed here, and it is no random draw.

Compound in the assay: Nc1ncnc2c1ncn2[C@@H]1O[C@H](COP(=O)(O)OP(=O)(O)NP(=O)(O)O)[C@@H](O)[C@H]1O [adenylyl imidodiphosphate]
Briefly: NP40-soluble protein abundance relative to vehicle (solubility fold change) (ratio); higher = more soluble protein in presence of AMP-PNP. As to conditions: concentration: 8mM. Put shortly:
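Values are fold changes against the detergent-processed vehicle, based on vsn-normalised intensities. Jurkat crude lysate was treated at eight concentrations from 0.1 to 10 mM (10 min at room temperature, then 3 min at 37 °C), solubilised with 0.8% NP40 and benzonase, ultracentrifuged and analysed by TMT-labelled LC-MS/MS over three independent experiments.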
Regarding UniProt Q6P9B6, the NP40-soluble protein abundance came out at 1.01 ± 0.054. The result for RAB11FIP1 (UniProt Q6WKZ4) reads 0.999 ± 0.033. Regarding UniProt Q709C8 and related entries, the NP40-soluble protein abundance worked out at 0.894 ± 0.016. The value for LARP1 (UniProt Q6PKG0) was 0.966 ± 0.063. Turning to UniProt Q68EM7-2|Q68EM7-3|Q68EM7, the NP40-soluble protein abundance amounted to 0.987 ± 0.021. The result for UniProt Q7L4I2 and related entries reads 0.932 ± 0.05; that for CNNM4 (UniProt Q6P4Q7), 0.9841 ± 0.0088.

As for TAF3 (UniProt Q5VWG9), the NP40-soluble protein abundance was 1.06 ± 0.021. Take TTC27 (UniProt Q6P3X3): the NP40-soluble protein abundance was 0.975 ± 0.032. As to UniProt Q7RTV0, the NP40-soluble protein abundance turned out to be 1.15 ± 0.051.

As for UniProt Q7KYR7 and related entries, the NP40-soluble protein abundance worked out at 0.971 ± 0.022. The result for USP34 (UniProt Q70CQ2) reads 0.877 ± 0.033; that for NAIF1 (UniProt Q69YI7), 0.931 ± 0.021; that for SDHAF4 (UniProt Q5VUM1), 0.907 ± 0.018. In the case of “Q5VV87 and related entries (UniProt O14880)”, the NP40-soluble protein abundance was 1.02 ± 0.014. The result for INTS5 (UniProt Q6P9B9) reads 1.13 ± 0.044.

On to MRPL14 (UniProt Q6P1L8), for which the NP40-soluble protein abundance came out at 1.04 ± 0.038. The value for UniProt Q5XUX1 and related entries was 0.982 ± 0.024; that for UniProt Q71RC2 and related entries was 1.074 ± 0.0034.

For UniProt Q6FI81 and related entries, the NP40-soluble protein abundance was 1.05 ± 0.043. The result for UniProt Q7Z434 and related entries reads 0.968 ± 0.056; that for HS2ST1 (UniProt Q7LGA3), 1.23 ± 0.06. The value for UniProt Q6ICG6 and related entries was 0.982 ± 0.032. Regarding ZCCHC8 (UniProt Q6NZY4), the NP40-soluble protein abundance is 0.998 ± 0.046. The result for UniProt Q6DHV7 and related entries reads 1.0125 ± 0.0007.

Take UniProt Q5VT52 and related entries: the NP40-soluble protein abundance is 1.05 ± 0.022.
